Assay results reported in US20240277737A1, “METHOD FOR GENERATING DRY POWDER SUITABLE FOR INHALATION ADMINISTRATION OF ANTIMICROBIAL PHOSPHOLIPID COMPOSITIONS” (Celestial Therapeutics, Inc., priority 2021, published 2024).
At least one structure is not confirmed: it was looked up by name or label, or the drawing left a doubt.

Test: particle size distribution by Sympatec laser particle sizer (RODOS/ASPIROS, 3 bar)
Assay type: physicochemical
Settings: raw material, R5 lens
Procedure: The Particle Size Distribution analysis was performed at 3 bar dispersion pressure using a Sympatec laser Particle Sizer equipped with RODOS/ASPIROS dispersion unit and an R5 lens.
The particle size analysis of the spray dried powders was performed at 3 bar dispersion pressure using a Sympatec laser Particle Sizer equipped with RODOS/ASPIROS dispersion unit and an R3 lens (n=2) and is summarised in Table 13 and in FIG. 19-FIG. 21. The PSD of spray dried powders decreased with increasing atomisation pressure and reducing outlet temperature during the spray drying manufacture.
The PSD analysis performed on 174 #003A-01 & 174 #003B-01 following storage at −20° C. was repeat-ed.
The spray dried product 174 #005A-01 was vacuum dried for 24 hours at 25° C. with a maximum pressure ˜0.1 mbar. After the 24 hours, the PSD of this product was evaluated. Post vacuum drying, increased amounts of aggregated material were observed and as a result the Dv90 increased. […]
The 174 #010A-01 post vacuum drying was separated in different aliquot and stored at 2-8° C. and at −20° C. The PSD and DSC of the spray dried powder was evaluated through time. […]
The particle size distribution of the micronized sample was determined by laser particle size analysis using an R1 (0.1-35.0 μm range) & R3 lens (0.5-175.0 μm range) at 3 bar dispersal pressure at T-0 and after T=7 days after storage of the sample at −20° C. […]

For CCCCCCCC/C=C\CCCCCCCC(=O)O[C@H](COC(=O)CCCCCCCCCCCCCCC)COP(=O)(O)OCC(O)CO (mixture of isomers) [POPG, 1-Palmitoy-2-loleoyl-sn-glycerol-3-phospho-(1′-rac-glycerol)], which X90 is on record?
The X90 was 183.21 = 33.83 μm.
